In article PMC7915972 one finds binding data, which are given here for four molecules.

The chains behind the UniProt entries cited, without tags or fusion partners.
UniProt Q62261: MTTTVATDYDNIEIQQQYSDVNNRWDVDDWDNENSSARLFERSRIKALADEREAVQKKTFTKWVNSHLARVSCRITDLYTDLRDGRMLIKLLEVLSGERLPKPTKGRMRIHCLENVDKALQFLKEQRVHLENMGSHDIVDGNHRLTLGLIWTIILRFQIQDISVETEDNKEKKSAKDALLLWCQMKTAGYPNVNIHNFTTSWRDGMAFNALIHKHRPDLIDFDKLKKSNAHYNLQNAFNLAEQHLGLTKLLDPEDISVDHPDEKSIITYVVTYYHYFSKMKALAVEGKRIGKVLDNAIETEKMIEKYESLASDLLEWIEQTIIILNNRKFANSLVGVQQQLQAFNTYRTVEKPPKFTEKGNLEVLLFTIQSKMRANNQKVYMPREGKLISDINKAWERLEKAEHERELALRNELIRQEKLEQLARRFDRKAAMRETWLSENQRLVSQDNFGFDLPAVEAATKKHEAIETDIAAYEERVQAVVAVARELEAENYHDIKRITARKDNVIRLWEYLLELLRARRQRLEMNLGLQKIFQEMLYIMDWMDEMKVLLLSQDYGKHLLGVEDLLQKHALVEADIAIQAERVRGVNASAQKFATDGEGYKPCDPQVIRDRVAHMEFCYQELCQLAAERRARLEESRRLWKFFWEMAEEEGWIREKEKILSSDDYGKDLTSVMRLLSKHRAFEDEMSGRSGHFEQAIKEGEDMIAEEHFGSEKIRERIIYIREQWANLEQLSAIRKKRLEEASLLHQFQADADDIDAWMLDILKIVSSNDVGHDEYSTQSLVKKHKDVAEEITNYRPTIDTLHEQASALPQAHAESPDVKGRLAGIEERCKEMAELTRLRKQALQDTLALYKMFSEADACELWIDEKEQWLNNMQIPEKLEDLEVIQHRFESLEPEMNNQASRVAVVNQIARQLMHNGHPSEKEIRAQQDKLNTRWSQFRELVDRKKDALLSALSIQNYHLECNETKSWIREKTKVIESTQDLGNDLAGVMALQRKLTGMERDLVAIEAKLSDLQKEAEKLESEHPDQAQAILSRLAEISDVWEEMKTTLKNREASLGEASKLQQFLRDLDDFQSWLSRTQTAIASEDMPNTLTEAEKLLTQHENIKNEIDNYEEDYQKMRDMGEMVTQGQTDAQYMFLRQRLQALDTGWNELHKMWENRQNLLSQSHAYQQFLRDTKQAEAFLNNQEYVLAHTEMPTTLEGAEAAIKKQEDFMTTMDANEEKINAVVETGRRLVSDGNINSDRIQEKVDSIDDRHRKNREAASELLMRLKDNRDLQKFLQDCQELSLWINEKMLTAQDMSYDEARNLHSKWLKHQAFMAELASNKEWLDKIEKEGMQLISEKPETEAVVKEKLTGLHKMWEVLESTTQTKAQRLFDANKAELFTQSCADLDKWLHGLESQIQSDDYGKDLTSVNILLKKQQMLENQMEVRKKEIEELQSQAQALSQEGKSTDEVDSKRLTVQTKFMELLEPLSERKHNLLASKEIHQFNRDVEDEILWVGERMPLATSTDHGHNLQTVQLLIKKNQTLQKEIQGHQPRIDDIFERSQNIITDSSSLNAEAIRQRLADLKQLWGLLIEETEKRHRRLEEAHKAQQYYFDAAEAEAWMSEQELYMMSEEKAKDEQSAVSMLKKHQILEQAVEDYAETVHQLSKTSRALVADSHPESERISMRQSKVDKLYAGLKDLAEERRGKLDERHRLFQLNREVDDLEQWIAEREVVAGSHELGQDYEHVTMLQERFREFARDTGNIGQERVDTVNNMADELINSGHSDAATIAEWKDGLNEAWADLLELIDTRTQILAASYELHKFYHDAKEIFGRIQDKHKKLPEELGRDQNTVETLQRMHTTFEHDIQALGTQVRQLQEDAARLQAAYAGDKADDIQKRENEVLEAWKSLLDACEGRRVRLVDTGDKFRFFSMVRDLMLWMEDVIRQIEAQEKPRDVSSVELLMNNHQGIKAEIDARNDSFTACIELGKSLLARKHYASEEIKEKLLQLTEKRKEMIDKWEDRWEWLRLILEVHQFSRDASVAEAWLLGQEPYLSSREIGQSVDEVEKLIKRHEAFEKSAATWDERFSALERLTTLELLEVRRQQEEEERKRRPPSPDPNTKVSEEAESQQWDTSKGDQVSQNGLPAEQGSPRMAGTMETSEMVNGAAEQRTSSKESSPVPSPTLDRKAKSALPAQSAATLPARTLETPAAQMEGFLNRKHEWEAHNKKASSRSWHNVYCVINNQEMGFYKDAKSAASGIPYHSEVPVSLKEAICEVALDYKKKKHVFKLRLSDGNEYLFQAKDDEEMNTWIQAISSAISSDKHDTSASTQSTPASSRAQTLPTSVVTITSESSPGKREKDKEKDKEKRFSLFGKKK
UniProt Q9EPK8: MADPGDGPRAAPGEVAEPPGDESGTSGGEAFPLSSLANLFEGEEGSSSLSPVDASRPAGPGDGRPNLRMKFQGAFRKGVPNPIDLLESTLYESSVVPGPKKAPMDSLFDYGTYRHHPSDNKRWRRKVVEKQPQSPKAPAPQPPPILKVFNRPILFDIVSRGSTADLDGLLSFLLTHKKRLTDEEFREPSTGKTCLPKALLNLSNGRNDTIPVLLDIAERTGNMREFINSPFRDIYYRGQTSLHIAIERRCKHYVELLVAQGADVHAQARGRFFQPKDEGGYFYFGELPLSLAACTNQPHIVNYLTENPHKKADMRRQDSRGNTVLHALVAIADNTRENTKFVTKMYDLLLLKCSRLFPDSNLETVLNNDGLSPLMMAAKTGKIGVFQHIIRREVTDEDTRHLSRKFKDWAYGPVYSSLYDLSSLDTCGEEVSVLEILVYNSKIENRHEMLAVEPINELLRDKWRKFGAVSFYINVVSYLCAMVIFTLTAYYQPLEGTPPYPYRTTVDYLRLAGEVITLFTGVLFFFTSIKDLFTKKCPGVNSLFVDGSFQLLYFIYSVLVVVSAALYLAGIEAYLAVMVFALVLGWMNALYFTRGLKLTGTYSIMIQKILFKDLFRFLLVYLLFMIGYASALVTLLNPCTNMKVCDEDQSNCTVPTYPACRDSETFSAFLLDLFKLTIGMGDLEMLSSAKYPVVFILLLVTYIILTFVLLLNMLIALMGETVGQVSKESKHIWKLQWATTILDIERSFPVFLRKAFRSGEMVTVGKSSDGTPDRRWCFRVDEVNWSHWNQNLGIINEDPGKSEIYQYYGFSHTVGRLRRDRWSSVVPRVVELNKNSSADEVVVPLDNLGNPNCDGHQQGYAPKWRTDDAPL
UniProt P68368: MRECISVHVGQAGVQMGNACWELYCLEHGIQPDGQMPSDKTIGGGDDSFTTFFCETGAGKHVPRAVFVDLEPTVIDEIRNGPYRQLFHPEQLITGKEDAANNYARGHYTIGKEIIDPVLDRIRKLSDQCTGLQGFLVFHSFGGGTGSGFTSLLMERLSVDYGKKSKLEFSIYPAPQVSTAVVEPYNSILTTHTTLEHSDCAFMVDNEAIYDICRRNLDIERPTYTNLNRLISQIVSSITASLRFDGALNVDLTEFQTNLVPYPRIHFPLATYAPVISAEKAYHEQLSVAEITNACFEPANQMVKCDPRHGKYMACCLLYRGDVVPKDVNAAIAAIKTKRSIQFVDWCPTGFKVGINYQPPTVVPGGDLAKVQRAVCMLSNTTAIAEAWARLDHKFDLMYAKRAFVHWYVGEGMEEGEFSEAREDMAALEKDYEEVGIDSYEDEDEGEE

In assay [1] the target is T1, Na-K-2Cl cotransporter 1 (Solute carrier family 12 member 2) (mouse (endogenous in choroid plexus)) (UniProt P55012).
T1 sequence: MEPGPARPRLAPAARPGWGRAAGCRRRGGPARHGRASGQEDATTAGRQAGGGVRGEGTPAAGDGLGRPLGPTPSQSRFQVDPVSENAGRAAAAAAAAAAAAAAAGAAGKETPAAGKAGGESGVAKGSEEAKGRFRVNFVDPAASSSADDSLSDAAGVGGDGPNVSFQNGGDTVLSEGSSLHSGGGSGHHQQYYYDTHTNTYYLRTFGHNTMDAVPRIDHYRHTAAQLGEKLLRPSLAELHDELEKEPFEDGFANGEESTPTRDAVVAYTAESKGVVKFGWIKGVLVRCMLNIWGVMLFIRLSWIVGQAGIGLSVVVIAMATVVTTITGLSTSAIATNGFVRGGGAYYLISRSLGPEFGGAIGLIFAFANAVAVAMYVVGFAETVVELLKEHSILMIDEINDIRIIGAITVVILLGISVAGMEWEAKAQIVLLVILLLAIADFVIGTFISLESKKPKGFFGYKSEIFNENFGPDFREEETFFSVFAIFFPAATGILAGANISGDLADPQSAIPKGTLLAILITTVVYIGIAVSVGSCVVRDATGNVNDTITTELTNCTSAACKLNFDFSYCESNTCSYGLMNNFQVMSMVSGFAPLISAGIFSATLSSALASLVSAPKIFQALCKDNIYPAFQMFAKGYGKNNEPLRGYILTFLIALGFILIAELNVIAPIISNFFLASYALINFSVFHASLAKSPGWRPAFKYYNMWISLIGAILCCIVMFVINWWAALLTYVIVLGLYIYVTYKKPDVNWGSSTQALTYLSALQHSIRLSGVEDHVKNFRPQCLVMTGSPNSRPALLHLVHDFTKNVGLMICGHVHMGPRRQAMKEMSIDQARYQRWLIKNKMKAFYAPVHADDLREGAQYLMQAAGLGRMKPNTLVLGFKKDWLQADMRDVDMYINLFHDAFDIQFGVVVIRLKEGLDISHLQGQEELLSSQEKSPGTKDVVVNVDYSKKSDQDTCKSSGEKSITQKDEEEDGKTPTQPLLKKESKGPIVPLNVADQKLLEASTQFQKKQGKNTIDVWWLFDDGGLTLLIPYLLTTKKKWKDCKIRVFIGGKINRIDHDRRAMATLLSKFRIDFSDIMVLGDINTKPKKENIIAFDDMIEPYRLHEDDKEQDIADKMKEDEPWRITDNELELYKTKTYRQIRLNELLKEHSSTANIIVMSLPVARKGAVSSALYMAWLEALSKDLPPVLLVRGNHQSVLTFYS
In words: native gel or EMSA; mouse choroid plexus homogenate, 1% digitonin, soluble proteins on 3–12% NativePAGE gels, 150 V, 1 h, 4 °C; Coomassie bands cut out for mass spectrometry, and immunoblots of native gels; co-migration. In general terms: In EMSA bound probe runs differently from free probe, usually more slowly.

Assay [2] deals with T2, Sodium-driven chloride bicarbonate exchanger (Na-dependent chloride-bicarbonate exchanger) (mouse (endogenous in choroid plexus)) (UniProt Q5DTL9).
T2 sequence: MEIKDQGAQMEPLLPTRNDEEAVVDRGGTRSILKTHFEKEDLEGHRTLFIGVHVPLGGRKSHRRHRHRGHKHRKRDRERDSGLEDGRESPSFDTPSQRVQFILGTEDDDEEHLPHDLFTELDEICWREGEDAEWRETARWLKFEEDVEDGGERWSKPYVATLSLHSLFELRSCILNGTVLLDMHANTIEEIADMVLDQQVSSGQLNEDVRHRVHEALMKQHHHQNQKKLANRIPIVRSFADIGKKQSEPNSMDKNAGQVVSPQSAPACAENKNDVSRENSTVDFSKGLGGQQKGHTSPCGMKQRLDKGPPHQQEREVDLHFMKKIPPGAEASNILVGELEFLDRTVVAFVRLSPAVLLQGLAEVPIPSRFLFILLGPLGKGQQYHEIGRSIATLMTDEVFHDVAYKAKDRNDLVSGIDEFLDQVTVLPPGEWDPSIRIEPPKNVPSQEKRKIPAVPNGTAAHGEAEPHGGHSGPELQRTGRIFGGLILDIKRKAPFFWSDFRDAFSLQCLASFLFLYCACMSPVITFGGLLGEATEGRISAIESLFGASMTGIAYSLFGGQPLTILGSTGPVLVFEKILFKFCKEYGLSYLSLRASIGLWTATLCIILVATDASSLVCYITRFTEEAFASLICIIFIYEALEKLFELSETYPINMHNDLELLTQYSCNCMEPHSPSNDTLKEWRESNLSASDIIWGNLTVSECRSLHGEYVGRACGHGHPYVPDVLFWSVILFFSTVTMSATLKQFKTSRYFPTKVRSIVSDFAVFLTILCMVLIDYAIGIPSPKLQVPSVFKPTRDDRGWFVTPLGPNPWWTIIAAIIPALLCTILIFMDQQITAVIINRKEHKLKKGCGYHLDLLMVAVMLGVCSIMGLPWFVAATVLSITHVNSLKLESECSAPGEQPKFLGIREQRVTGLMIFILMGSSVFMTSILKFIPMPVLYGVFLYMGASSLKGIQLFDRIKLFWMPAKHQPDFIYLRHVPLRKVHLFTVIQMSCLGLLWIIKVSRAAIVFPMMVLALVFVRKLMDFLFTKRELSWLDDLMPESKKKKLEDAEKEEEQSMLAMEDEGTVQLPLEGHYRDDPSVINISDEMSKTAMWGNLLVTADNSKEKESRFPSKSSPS
The assay is described as above.

Assay [3] addresses T3, Anion exchange protein 2 (mouse (endogenous in choroid plexus)) (UniProt P13808).
T3 sequence: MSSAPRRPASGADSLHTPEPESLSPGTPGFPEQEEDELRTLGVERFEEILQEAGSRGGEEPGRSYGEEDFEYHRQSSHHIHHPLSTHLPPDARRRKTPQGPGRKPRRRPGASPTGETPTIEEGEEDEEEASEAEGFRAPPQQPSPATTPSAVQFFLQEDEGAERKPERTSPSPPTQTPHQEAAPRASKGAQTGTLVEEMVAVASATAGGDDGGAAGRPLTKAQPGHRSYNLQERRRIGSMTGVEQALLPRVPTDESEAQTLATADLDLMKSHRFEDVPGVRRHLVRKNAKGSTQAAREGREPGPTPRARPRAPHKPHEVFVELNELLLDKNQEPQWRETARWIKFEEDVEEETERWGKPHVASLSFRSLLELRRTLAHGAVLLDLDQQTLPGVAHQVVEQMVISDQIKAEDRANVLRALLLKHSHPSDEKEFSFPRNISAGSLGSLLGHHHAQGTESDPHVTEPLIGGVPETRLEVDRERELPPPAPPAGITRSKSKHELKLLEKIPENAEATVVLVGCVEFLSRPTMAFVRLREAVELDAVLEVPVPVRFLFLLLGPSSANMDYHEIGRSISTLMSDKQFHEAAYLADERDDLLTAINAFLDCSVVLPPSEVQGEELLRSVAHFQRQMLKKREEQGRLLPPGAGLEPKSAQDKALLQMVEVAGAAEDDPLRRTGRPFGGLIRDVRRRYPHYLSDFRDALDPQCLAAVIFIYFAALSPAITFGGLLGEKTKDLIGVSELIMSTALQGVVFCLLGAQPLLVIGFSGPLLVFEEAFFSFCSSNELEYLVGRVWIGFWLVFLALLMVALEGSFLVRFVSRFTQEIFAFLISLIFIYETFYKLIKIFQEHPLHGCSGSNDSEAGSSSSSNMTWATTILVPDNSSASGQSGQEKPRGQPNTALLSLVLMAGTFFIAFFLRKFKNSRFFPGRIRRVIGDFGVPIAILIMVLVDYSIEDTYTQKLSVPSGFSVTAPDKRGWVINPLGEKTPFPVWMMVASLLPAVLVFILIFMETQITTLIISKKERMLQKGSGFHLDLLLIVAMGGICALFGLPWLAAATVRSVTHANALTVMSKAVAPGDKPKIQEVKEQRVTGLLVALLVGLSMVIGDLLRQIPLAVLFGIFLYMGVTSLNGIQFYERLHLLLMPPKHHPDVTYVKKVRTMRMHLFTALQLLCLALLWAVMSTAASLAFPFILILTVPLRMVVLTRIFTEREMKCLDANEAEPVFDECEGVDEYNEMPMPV
Described as above.

The target of assay [4] is T1, Na-K-2Cl cotransporter 1 (Solute carrier family 12 member 2) (mouse (endogenous in choroid plexus)). Kind of assay: proximity ligation; Duolink PLA with pairs of primary antibodies on paraformaldehyde-fixed paraffin sections of mouse brain (choroid plexus epithelium).

Results are given in words; binding and its absence hold for the method and conditions named. For some of these results: Binding seen in cells or lysates may run through a third protein. Some entries that bind do so weakly or less than the wild type.

On to “Spectrin beta chain, non-erythrocytic 1 (from UniProt Q62261 1-2363)”, for which the binding entry in assay [1], in assay [2] and in assay [3] was “binds” in each case.

Turning to “Transient receptor potential cation channel V4 (from UniProt Q9EPK8 1-871)”, the binding entry in assay [1] is reported as “binds”.

With “Tubulin alpha-4A chain (from UniProt P68368 1-448)”, the binding result in assay [1] is “binds”.

B1: Sodium-driven chloride bicarbonate exchanger (Na-dependent chloride-bicarbonate exchanger) (protein, UniProt Q5DTL9 1-1118)
chain: MEIKDQGAQMEPLLPTRNDEEAVVDRGGTRSILKTHFEKEDLEGHRTLFIGVHVPLGGRKSHRRHRHRGHKHRKRDRERDSGLEDGRESPSFDTPSQRVQFILGTEDDDEEHLPHDLFTELDEICWREGEDAEWRETARWLKFEEDVEDGGERWSKPYVATLSLHSLFELRSCILNGTVLLDMHANTIEEIADMVLDQQVSSGQLNEDVRHRVHEALMKQHHHQNQKKLANRIPIVRSFADIGKKQSEPNSMDKNAGQVVSPQSAPACAENKNDVSRENSTVDFSKGLGGQQKGHTSPCGMKQRLDKGPPHQQEREVDLHFMKKIPPGAEASNILVGELEFLDRTVVAFVRLSPAVLLQGLAEVPIPSRFLFILLGPLGKGQQYHEIGRSIATLMTDEVFHDVAYKAKDRNDLVSGIDEFLDQVTVLPPGEWDPSIRIEPPKNVPSQEKRKIPAVPNGTAAHGEAEPHGGHSGPELQRTGRIFGGLILDIKRKAPFFWSDFRDAFSLQCLASFLFLYCACMSPVITFGGLLGEATEGRISAIESLFGASMTGIAYSLFGGQPLTILGSTGPVLVFEKILFKFCKEYGLSYLSLRASIGLWTATLCIILVATDASSLVCYITRFTEEAFASLICIIFIYEALEKLFELSETYPINMHNDLELLTQYSCNCMEPHSPSNDTLKEWRESNLSASDIIWGNLTVSECRSLHGEYVGRACGHGHPYVPDVLFWSVILFFSTVTMSATLKQFKTSRYFPTKVRSIVSDFAVFLTILCMVLIDYAIGIPSPKLQVPSVFKPTRDDRGWFVTPLGPNPWWTIIAAIIPALLCTILIFMDQQITAVIINRKEHKLKKGCGYHLDLLMVAVMLGVCSIMGLPWFVAATVLSITHVNSLKLESECSAPGEQPKFLGIREQRVTGLMIFILMGSSVFMTSILKFIPMPVLYGVFLYMGASSLKGIQLFDRIKLFWMPAKHQPDFIYLRHVPLRKVHLFTVIQMSCLGLLWIIKVSRAAIVFPMMVLALVFVRKLMDFLFTKRELSWLDDLMPESKKKKLEDAEKEEEQSMLAMEDEGTVQLPLEGHYRDDPSVINISDEMSKTAMWGNLLVTADNSKEKESRFPSKSSPS
Regarding B1, the binding entry in assay [1] and in assay [4] was “binds” each time.
